Measurements as given in PubChem BioAssay AID2685 (National Center for Advancing Translational Sciences (NCATS), 2010).
The list shows a part of the results. Shown are side measurements of this screen, not its main read-out; they come without a call. The list favours compounds with an active or inconclusive main result. Words in brackets tell the shape of the fitted curve; partial curves, single points and poor fits give uncertain potencies.

Experiment: qHTS Assay for Lipid Storage Modulators in Drosophila S3 Cells;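 on cell number change: cells counted by Cell Tracker Red CMTPX staining in the red channel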
Details: BODIPY lipid droplet fluorescence, 18-24 h; for cell number change: measured here: cell count max response, cells fed with added oleic acid
Method in brief: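 Drosophila S3 cells loaded with oleic acid (400 uM, as added) and compounds at several concentrations; lipid droplets imaged by 488-nm laser-scanning cytometry, 500–530 nm intensity and object ratio to cell channel. Percent activity normalized to 20 uM Triacsin C.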

[1] = measured here: cell number channel AC50, cells fed with added oleic acid
[2] = measured here: lipid fluorescence (Fed channel) AC50, cells fed with added oleic acid

Row | SMILES | AC50 [1] | AC50 [2] | cell number change
1 | CC(C)CC1C(C#N)=C(N)OC2=C1C(=O)CC(c1ccccc1)C2 (configuration not stated) | 0.411 µM [falling, full curve, poor fit] | 0.00517 µM [falling, full curve] | –
2 | CCCOc1ccc(C(=O)CCN2CCCCC2)cc1 | 13 µM [falling, partial curve] | 14.6 µM [falling, single point] | -32.7%
3 | O=C(COC(=O)c1ccccc1F)Nc1ccc2c(c1)OCCO2 | – | – | -5.22%
4 | N#Cc1cnc(N)c(Br)c1 | – | 0.00461 µM [falling, full curve, poor fit] | 6.72%
5 | CC1CN(c2ccc(NS(=O)(=O)c3ccccc3)cc2C(=O)O)CC(C)O1 (configuration not stated) | – | 0.731 µM [rising, full curve, poor fit] | –
6 | Cc1ccc(-n2c(=O)c3sccc3n(CC(=O)NCc3ccco3)c2=O)cc1 | 16.4 µM [rising, partial curve] | – | 66.4%
7 | Cc1ccccc1CN(C)Cc1cc(=O)oc2c(C)c(C)ccc12 | – | – | 6.72%
8 | O=C(Cn1nc(-c2ccc(Cl)cc2)ccc1=O)NCCN1CCOCC1 | – | 23.1 µM [falling, single point] | 2.28%
9 | COc1cccc(NC(=O)c2cnc(SC)nc2)c1 | – | 13 µM [falling, partial curve] | -17.8%
10 | O=C(COc1ccc2ccc(=O)oc2c1)Nc1ccc(N2CCCCC2)cc1 | 0.366 µM [falling, single point] | – | 17.2%
11 | Cc1ccc(NC(=O)NNC(=O)c2snnc2C)cc1 | 2.91 µM [rising, single point] | 6.51 µM [rising, single point] | -24.3%
12 | CCn1c(C(=O)N2CCC(C(=O)N3CCN(c4ccccn4)CC3)CC2)cc2sccc21 | 2.06 µM [rising, partial curve, poor fit] | 6.51 µM [rising, single point] | –
13 | CCOc1ccccc1NC(=O)C(NCCc1ccc(OC)cc1)c1ccccc1 (configuration not stated) | – | – | 24.9%
14 | FC(F)(F)C1=CC(c2ccc(Br)cc2)=NCCN1 | 3.26 µM [falling, full curve, poor fit] | – | -29.9%
15 | CC(=C/c1ccc(C(C)C)cc1)/C=N/NC(=O)Cn1nc(C)cc1C | – | 32.6 µM [falling, single point] | -22.6%
16 | Cc1nnc(N/N=C/c2ccc(Br)cc2)n1N | – | 20.6 µM [falling, single point] | -2.92%
17 | O=C1NC(=O)c2cc(Oc3ccc([N+](=O)[O-])cc3)ccc21 | – | 6.51 µM [rising, single point] | 2.75%

Individual results from the entries so far:
Entry for `CC1CN(c2ccc(NS(=O)(=O)c3ccccc3)cc2C(=O)O)CC(C)O1` (configuration not stated) under AC50 [2]: 0.731 µM [rising, full curve, poor fit]
Entry for `O=C(COC(=O)c1ccccc1F)Nc1ccc2c(c1)OCCO2` under cell number change: -5.22%
